About 6,000 (1.7%) of roughly 350,000 compounds were called active. This list was built around the results that the source calls inconclusive (neither active nor inactive); the mix of calls is not that of the screen. Rule as the data show it: active = CPE inhibition above about 20% (passing the limit was not always enough); inconclusive = no clear call, values can overlap the other calls; tested in BHK-21 cells.
Assay: protection of cells from dengue 2 killing – plate reader, single concentration, primary screen (AID 651640);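 also: 0% = median of neutral control wells and 100% = median of positive control wells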
Conditions: DENV2-infected cells, cytopathic effect rescue, at 9.99 µM, stronger effect = higher value

SMILES | CPE inhibition
COc1ccc(NC(=O)N(C)C[C@@H]2OCCCC[C@@H](C)Oc3ccc(NC(=O)CCCN(C)C)cc3C(=O)N([C@@H](C)CO)C[C@H]2C)cc1 | active: 66.5%
CO[C@@H]1CN(C)C(=O)c2ccc(NC(=O)Nc3cccc(F)c3)cc2OC[C@@H](C)N(C(=O)Nc2c(C)noc2C)C[C@H]1C | active: 62.9%
Cc1ccc(S(=O)(=O)CCC(=O)N(C)C2CCCCC2)cc1 | inconclusive: 22.9%
Cc1ccccc1NS(=O)(=O)c1ccc(C(=O)N2CCN(S(=O)(=O)c3ccccc3)CC2)cc1 | inconclusive: 46.4%
Cc1cc(C)cc(NC(=O)CSc2nc(=O)n(CCCN3CCOCC3)c3c2CCCC3)c1 | inconclusive: 41.3%
CCOC(=O)c1cnc2[nH]c3ccccc3n2c1=O | inconclusive: 33.4%
O=S(=O)(c1ccc(Cl)cc1)N1CCN(Cc2ccc(O)c3ncccc23)CC1 | inactive: -0.464%
O=C1N2CCCCC1(c1ccccc1)CCCC2 | active: 40%
Cc1noc(C)c1NC(=O)N1C[C@@H](O)COC[C@@H]2O[C@@H](CC(=O)N3CCc4ccccc4C3)CC[C@H]21 | inactive: 2.89%
COc1ccc(CCNC(=O)c2cnc3scc(C)n3c2=O)cc1OC | active: 75.1%
CC(OC(=O)/C=C/c1cccc(Cl)c1)C(=O)NC1CCCCC1C (stereo unspecified) | active: 90.5%
CN(C)CC(=O)N1[C@H](C#N)[C@H](c2ccccc2-c2ccccc2F)[C@H]1CO | inconclusive: 22.1%
Cc1cccc(/C=N/NC(=O)c2ccncc2)n1 | inconclusive: 43.8%
COc1ccc(C(=O)NNC(=O)c2cccc(S(=O)(=O)N3CCOCC3)c2)cc1 | inconclusive: 53.4%
COc1ccc(C(=O)NNC(=O)C(NC(=O)c2ccccc2NC(=O)c2ccco2)C(C)C)cc1 (stereo unspecified) | inactive: 0.017%
O=C(N/C(=C/c1cccs1)C(=O)N1CCOCC1)c1ccccc1 | inconclusive: 35.4%
Cc1cccc(N=N/C(=C\O)C(=O)c2ccc(Br)cc2)c1 | inactive: 6.35%
COc1ccccc1S(=O)(=O)N[C@H]1C=C[C@H](CC(=O)N2CCN(C)CC2)O[C@H]1CO | inconclusive: 20.7%
COCCCn1c(C(=O)NCCN2CCOCC2)cc2c(=O)n3cccc(C)c3nc21 | inconclusive: 23.7%
C[C@@H]1CCCCO[C@@H](CN(C)C(=O)Cc2ccccc2)[C@H](C)CN([C@@H](C)CO)C(=O)c2cc(NS(=O)(=O)c3ccc(F)cc3)ccc2O1 | inactive: -7.22%
CC(C)OCCCNC(=O)c1cccc(NC(=O)c2ccccc2)c1 | inconclusive: 36.8%
CCOC(=O)c1[nH]c2ccccc2c1NC(C)=O | inconclusive: 65.9%
C[C@@H]1CN([C@@H](C)CO)C(=O)c2cc(/C=C/c3ccccc3)cnc2O[C@@H]1CN(C)C(=O)Cc1ccccn1 | inconclusive: 41.6%
O=C(NCCCN1CCCC1=O)c1cc(-c2ccc(F)cc2)nc2ccccc12 | inactive: -0.106%
CN1CCN(c2ccc(S(=O)(=O)N3CCOCC3)cc2NC(=O)C2CCCCC2)CC1 | inconclusive: 122%
COc1ccc(C(CNC(=O)c2oc3c(Cl)cccc3c2C)N2CCCC2)cc1 (stereo unspecified) | inconclusive: 32.7%

SMILES | CPE inhibition
CC(=O)N1C[C@H]2CON(C)[C@H]2C[C@H]1c1cccc(-c2ccc(C#N)cc2)c1 | active: 21.4%
CN(C[C@@H]1[C@H](c2ccccc2)[C@H](CO)N1Cc1ccccn1)S(C)(=O)=O | inactive: -5.97%
Cc1ccccc1-n1ncc(C(C)NS(=O)(=O)c2ccccc2Cl)c1C (stereo unspecified) | inconclusive: 35%
COc1cc2c(C#N)c(N3CCCC3)nc(N)c2c(N)n1 | inconclusive: 34.4%
N#CCNc1ccc([N+](=O)[O-])cc1C#N | inconclusive: 20.6%
NC(=O)CC(NC(=O)Cc1ccc(Cl)cc1)c1ccc(NC2CCN(Cc3ccccc3)CC2)c([N+](=O)[O-])c1 (stereo unspecified) | active: 61.1%
COc1cccc(NC(=O)Nc2ccc3c(c2)OC[C@H](C)NC[C@@H](C)[C@H](OC)CN(C)C3=O)c1 | active: 22.2%
C[C@H](CO)N1C[C@H](C)[C@@H](CN(C)Cc2ccc(Cl)c(Cl)c2)Oc2ccc(NC(=O)C3CC3)cc2C1=O | inactive: -0.982%
COc1ccccc1C#Cc1cnc2c(c1)C(=O)N([C@H](C)CO)C[C@H](C)[C@H](CN(C)C(=O)CN(C)C)O2 | inconclusive: 28.8%
COCCn1cnnc1SCC(=O)Nc1cccc(S(=O)(=O)N2CCCCCC2)c1 | inconclusive: 64.8%
O=C(N[C@@H]1CC[C@H](CCNS(=O)(=O)c2ccc(Cl)cc2)O[C@H]1CO)c1cnccn1 | inactive: -4.67%
Cc1noc(C)c1S(=O)(=O)N(C)C[C@H]1OCCCC[C@H](C)Oc2ccc(NC(=O)NC(C)C)cc2C(=O)N([C@H](C)CO)C[C@@H]1C | active: 102%
CCOC(=O)[C@H]1[C@H]2COc3cc(OC)ccc3[C@@H]2N2C(=O)CN(Cc3ccco3)C(=O)[C@@]12C | active: 29.6%
Nc1c(/C=C2/C=CC(=O)C(O)=C2)c(=O)nc2sc(CC(=O)N3CCCCC3)nn12 | inactive: 3.25%
Cc1cc(C)cc(NS(=O)(=O)c2ccc(NC(=S)Nc3ccccc3)cc2)c1 | inconclusive: 28.7%
O=C(Nc1cccc(F)c1)NC1CCCc2ccccc21 (stereo unspecified) | inconclusive: 24.9%
C[C@@H]1CCCCO[C@@H](CN(C)C(=O)Nc2ccc(C(F)(F)F)cc2)[C@H](C)CN([C@@H](C)CO)C(=O)c2cc(NS(=O)(=O)c3ccc(F)cc3)ccc2O1 | active: 60.8%
CCOC(=O)c1ccc(NC(=S)N2CCN(C)CC2)cc1 | inconclusive: 48.2%
O=C(Nc1ccc(Br)cc1F)C1CC(=O)N(C2CCCCC2)C1 (stereo unspecified) | inconclusive: 50.2%
CCC(=O)Oc1ccc(C(=O)Nc2ccc3c(c2)OCO3)cc1 | inconclusive: 31%
COCC(=O)N1CCC2(CC1)CN(S(C)(=O)=O)[C@H](CO)c1[nH]c3cc(OC)ccc3c12 | inconclusive: 21%
COCCNC(=O)C[C@H]1CC[C@H](NC(=O)NC2CCCC2)[C@H](CO)O1 | inactive: -4.55%
Cc1ccc(C(C(=O)NC(C)(C)C)N(Cc2ccco2)C(=O)CCC(=O)Nc2ccccn2)cc1 (stereo unspecified) | inconclusive: 25%
CC(C)NC(=O)Nc1ccc2c(c1)C(=O)N([C@H](C)CO)C[C@@H](C)[C@H](CN(C)C(=O)Nc1ccc(C(F)(F)F)cc1)OCCCC[C@@H](C)O2 | active: 49.8%
O=C(COC(=O)c1ccc(O)cc1O)NC1CC1 | inconclusive: 21.2%
CC(=O)NC(c1cccs1)c1cc([N+](=O)[O-])c2cccnc2c1O (stereo unspecified) | active: 86.7%

SMILES | CPE inhibition
Cc1cccc(N2C(=O)Cc3ccccc3C2=O)c1 | inconclusive: 29.1%
COc1ccc2c(c1OC)C(=O)N1C2SC[C@H]1C(=O)NC1CC1 (stereo partly specified) | inconclusive: 52.3%
C[C@@H]1CN([C@@H](C)CO)S(=O)(=O)c2ccc(C#CCN(C)C)cc2O[C@H]1CN(C)Cc1ccccc1 | active: 23.8%
Cc1cccc(C(=O)NC2CCN(CC(=O)Nc3ccc4c(c3)OCO4)CC2)c1 | inconclusive: 24.8%
CN1[C@@H]2Cn3c(ccc(-c4ccccc4)c3=O)[C@H]1[C@@H](C(=O)NCCc1ccccc1)[C@@H]2CO | inconclusive: 21%
N#CCCN1CCN(S(=O)(=O)c2ccc(S(=O)(=O)NC3CCCCC3)cc2)CC1 | inconclusive: 23.4%
C[C@@H]1CCCCO[C@@H](CN(C)S(C)(=O)=O)[C@H](C)CN([C@@H](C)CO)C(=O)c2cc(NC(=O)Nc3ccc(F)cc3)ccc2O1 | inactive: -4.36%
CCc1nc(N2[C@H](C#N)[C@@H](c3ccccc3-c3ccccc3C)[C@H]2CO)sc1C | inconclusive: 32.3%
O=c1nc(NO)ccn1C1CCCO1 (stereo unspecified) | inconclusive: 55.1%
O=C(OCc1ccccc1)N1CCC2CC1c1ccc(N3CCNCC3)cc12 (stereo unspecified) | active: 75.4%
CC(COc1ccccc1)N(CCCl)Cc1ccccc1 (stereo unspecified) | inconclusive: 77.1%
C[C@@H]1CCCCO[C@@H](CN(C)C(=O)Nc2ccc(C(F)(F)F)cc2)[C@@H](C)CN([C@H](C)CO)C(=O)c2cc(NC(=O)c3ccncc3)ccc2O1 | active: 27.7%
CNC[C@H]1OCCCC[C@@H](C)Oc2ccc(NC(=O)Nc3ccc(C(F)(F)F)cc3)cc2C(=O)N([C@H](C)CO)C[C@@H]1C | inactive: -2.6%
O=C(NC1CCCCC1)N1CCc2ccccc2C1 | inactive: 0.39%
O=C(O)c1cscc1-c1cccc2ccccc12 | inactive: -4.13%
Cc1cc(NC(=O)c2cc(-c3ccc(C)s3)nc3ccccc23)no1 | inconclusive: 53.8%
Cc1ccc(S(=O)(=O)N(Cc2cc3ccccc3[nH]c2=O)c2cccc(C)c2)cc1 | inactive: -7.04%
Cc1ccc(S(=O)(=O)N2CCCCC2)cc1NC(=O)C1COc2ccccc2O1 (stereo unspecified) | inconclusive: 55.7%
O=C(C[C@H]1C[C@@H]2c3cc(NC(=O)Nc4ccc(F)cc4)ccc3O[C@@H]2[C@@H](CO)O1)NC1CCCCC1 | inconclusive: 55.6%
CN1c2ccc(Br)cc2[C@H]2[C@H](CCN2S(=O)(=O)c2cccc(F)c2)[C@H]1CO | active: 118%
CC(=O)C1=C(O)CC(C)(C)CC1=NCCc1nc2ccccc2[nH]1 | inconclusive: 28.4%
Clc1cc(Br)ccc1OCCCn1ccnc1 | active: 36.6%
CCc1noc(C)c1C(=O)Nc1cc(S(=O)(=O)N2CCOCC2)ccc1OC(C)C | inconclusive: 36.1%
O=C(c1ccccc1NS(=O)(=O)c1ccc2c(c1)OCCO2)N1CCOCC1 | inconclusive: 38.7%

An excerpt of the results above, for reference:
SMILES | CPE inhibition
Nc1c(/C=C2/C=CC(=O)C(O)=C2)c(=O)nc2sc(CC(=O)N3CCCCC3)nn12 | inactive: 3.25%
Cc1cc(C)cc(NS(=O)(=O)c2ccc(NC(=S)Nc3ccccc3)cc2)c1 | inconclusive: 28.7%
O=C(Nc1cccc(F)c1)NC1CCCc2ccccc21 (stereo unspecified) | inconclusive: 24.9%
C[C@@H]1CCCCO[C@@H](CN(C)C(=O)Nc2ccc(C(F)(F)F)cc2)[C@H](C)CN([C@@H](C)CO)C(=O)c2cc(NS(=O)(=O)c3ccc(F)cc3)ccc2O1 | active: 60.8%
CCOC(=O)c1ccc(NC(=S)N2CCN(C)CC2)cc1 | inconclusive: 48.2%
O=C(Nc1ccc(Br)cc1F)C1CC(=O)N(C2CCCCC2)C1 (stereo unspecified) | inconclusive: 50.2%
CCC(=O)Oc1ccc(C(=O)Nc2ccc3c(c2)OCO3)cc1 | inconclusive: 31%
COCC(=O)N1CCC2(CC1)CN(S(C)(=O)=O)[C@H](CO)c1[nH]c3cc(OC)ccc3c12 | inconclusive: 21%
COCCNC(=O)C[C@H]1CC[C@H](NC(=O)NC2CCCC2)[C@H](CO)O1 | inactive: -4.55%
Cc1ccc(C(C(=O)NC(C)(C)C)N(Cc2ccco2)C(=O)CCC(=O)Nc2ccccn2)cc1 (stereo unspecified) | inconclusive: 25%
CC(C)NC(=O)Nc1ccc2c(c1)C(=O)N([C@H](C)CO)C[C@@H](C)[C@H](CN(C)C(=O)Nc1ccc(C(F)(F)F)cc1)OCCCC[C@@H](C)O2 | active: 49.8%
O=C(COC(=O)c1ccc(O)cc1O)NC1CC1 | inconclusive: 21.2%
CC(=O)NC(c1cccs1)c1cc([N+](=O)[O-])c2cccnc2c1O (stereo unspecified) | active: 86.7%
Cc1cccc(N2C(=O)Cc3ccccc3C2=O)c1 | inconclusive: 29.1%
COc1ccc2c(c1OC)C(=O)N1C2SC[C@H]1C(=O)NC1CC1 (stereo partly specified) | inconclusive: 52.3%
C[C@@H]1CN([C@@H](C)CO)S(=O)(=O)c2ccc(C#CCN(C)C)cc2O[C@H]1CN(C)Cc1ccccc1 | active: 23.8%
Cc1cccc(C(=O)NC2CCN(CC(=O)Nc3ccc4c(c3)OCO4)CC2)c1 | inconclusive: 24.8%
CN1[C@@H]2Cn3c(ccc(-c4ccccc4)c3=O)[C@H]1[C@@H](C(=O)NCCc1ccccc1)[C@@H]2CO | inconclusive: 21%
N#CCCN1CCN(S(=O)(=O)c2ccc(S(=O)(=O)NC3CCCCC3)cc2)CC1 | inconclusive: 23.4%
C[C@@H]1CCCCO[C@@H](CN(C)S(C)(=O)=O)[C@H](C)CN([C@@H](C)CO)C(=O)c2cc(NC(=O)Nc3ccc(F)cc3)ccc2O1 | inactive: -4.36%

Reference: PubChem BioAssay AID651640 (Broad Institute, 2012)
